In patent US20220177577A1:
Substitutions are numbered along the chain they refer to. Results are given in words; binding and its absence hold for the method and conditions named. Some results given as binding are weak or reduced against the parent protein; the word gives no strength.

The chains behind the UniProt entries cited, without tags or fusion partners. Where a name states a change or a piece, a line headed by the entry shows the natural chain unless it says otherwise. A line that says so, or that is headed by a name, gives the form on record, which may keep a tag or linker.
UniProt P10721: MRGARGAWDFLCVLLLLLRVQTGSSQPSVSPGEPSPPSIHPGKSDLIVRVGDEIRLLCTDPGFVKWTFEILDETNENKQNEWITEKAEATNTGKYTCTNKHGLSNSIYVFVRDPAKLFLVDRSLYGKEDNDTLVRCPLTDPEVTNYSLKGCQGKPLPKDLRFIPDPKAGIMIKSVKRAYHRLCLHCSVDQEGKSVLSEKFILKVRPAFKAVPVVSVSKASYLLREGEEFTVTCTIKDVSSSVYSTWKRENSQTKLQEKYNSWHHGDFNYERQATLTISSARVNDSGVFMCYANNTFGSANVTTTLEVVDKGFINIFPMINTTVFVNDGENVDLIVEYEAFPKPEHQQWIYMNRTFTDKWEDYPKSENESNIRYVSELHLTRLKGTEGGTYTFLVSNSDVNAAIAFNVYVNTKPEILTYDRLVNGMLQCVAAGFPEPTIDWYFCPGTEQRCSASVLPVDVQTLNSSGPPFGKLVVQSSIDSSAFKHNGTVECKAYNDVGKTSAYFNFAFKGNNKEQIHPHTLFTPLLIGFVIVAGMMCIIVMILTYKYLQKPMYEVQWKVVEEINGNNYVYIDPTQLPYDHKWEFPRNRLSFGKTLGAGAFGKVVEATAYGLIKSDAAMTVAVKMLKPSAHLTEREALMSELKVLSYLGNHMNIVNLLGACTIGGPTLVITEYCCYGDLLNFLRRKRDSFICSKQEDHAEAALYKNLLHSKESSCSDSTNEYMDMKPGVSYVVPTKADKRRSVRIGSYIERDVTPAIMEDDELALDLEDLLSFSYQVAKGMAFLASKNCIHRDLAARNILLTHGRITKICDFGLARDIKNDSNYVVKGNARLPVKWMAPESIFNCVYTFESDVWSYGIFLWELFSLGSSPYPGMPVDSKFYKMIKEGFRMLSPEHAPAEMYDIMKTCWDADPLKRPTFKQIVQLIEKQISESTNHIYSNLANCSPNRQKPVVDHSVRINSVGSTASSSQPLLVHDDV
rhesus CD117 (F6V858, form named): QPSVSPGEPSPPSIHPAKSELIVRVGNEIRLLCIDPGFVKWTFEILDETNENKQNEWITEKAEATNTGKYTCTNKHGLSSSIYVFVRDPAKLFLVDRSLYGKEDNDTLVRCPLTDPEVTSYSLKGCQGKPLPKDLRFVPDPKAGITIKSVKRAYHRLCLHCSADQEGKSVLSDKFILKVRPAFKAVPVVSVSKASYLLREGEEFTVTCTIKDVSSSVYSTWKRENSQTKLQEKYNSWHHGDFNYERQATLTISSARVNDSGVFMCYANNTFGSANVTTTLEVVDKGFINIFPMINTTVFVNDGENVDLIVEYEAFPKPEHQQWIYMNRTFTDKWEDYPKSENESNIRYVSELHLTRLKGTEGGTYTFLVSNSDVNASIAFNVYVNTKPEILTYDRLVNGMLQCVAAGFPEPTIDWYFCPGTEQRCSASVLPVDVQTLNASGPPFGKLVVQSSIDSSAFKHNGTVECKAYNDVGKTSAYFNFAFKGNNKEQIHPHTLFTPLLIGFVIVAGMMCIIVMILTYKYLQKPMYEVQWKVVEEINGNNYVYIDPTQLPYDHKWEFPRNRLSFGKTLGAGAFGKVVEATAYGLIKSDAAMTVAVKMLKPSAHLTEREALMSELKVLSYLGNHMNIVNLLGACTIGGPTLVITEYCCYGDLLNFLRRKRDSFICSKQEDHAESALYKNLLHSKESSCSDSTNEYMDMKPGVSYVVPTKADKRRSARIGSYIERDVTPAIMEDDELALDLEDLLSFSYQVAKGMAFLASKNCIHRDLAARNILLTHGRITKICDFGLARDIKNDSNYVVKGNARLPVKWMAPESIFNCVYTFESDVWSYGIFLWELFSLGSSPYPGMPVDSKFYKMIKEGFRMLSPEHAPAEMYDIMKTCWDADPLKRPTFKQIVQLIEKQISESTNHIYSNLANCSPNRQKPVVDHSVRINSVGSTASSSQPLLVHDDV

B1: Antibody 57 (antibody, V domains shown)
VH: QVQLVQSGAEVKKPGSSVKVSCKASGGTFSLYAISWVRQAPGQGLEWMGGIIPHFGLANYAQKFQGRVTITADESTSTAYMELSSLRSEDTAVYYCARGGLDTDEFDLWGRGTLVTVSS
VL: DIQMTQSPSSLSASVGDRVTITCRASQSINSYLNWYQQKPGKAPKLLIYAASSLQSGVPSRFSGSGSGTDFTLTISSLQPEDFATYYCQQGVSDITFGGGTKVEIKR
B2: Antibody 55 (antibody, V domains shown)
VH: B1 VH with S30R, L31I, H54D, L57V
VL: B1 VL
B3: Antibody 61 (antibody, V domains shown)
VH: EVQLLESGGGLVQPGGSLRLSCAASGFTFSSYVMIWVRQAPGKGLEWVSSISGDSVTTYYADSVKGRFTISRDNSKNTLYLQMNSLRAEDTAVYYCAKGPPTYHTNYYYMDVWGKGTTVTVSS
VL: DIQMTQSPSSVSASVGDRVTITCRASQGISSWLAWYQQKPGKAPKLLIYAASSLQSGVPSRFSGSGSGTDFTLTISSLQPEDFATYYCQQTNSFPYTFGGGTKVEIKR

These binders were tested against human CD117 isoform 1 (human) (UniProt P10721) (assay: antibodies from a yeast library screen; binding assay not described).

binding, binds:
B1, B2, B3

Each binder was assayed against human CD117 isoform 2 (human) (UniProt P10721) in the same assay as above.

binding, binds:
B1, B2, B3

What follows are binders tested against rhesus CD117 (rhesus) (UniProt F6V858) in the same assay as above.

binding, binds:
B1, B2, B3
